Data reported in PubChem BioAssay AID2685 (National Center for Advancing Translational Sciences (NCATS), 2010).
The other results are listed elsewhere or left out. The main result of the screen is listed elsewhere. These columns were measured beside it and carry no call. The list favours compounds with an active or inconclusive main result. Words in brackets tell the shape of the fitted curve; partial curves, single points and poor fits give uncertain potencies.

Experiment: qHTS Assay for Lipid Storage Modulators in Drosophila S3 Cells;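 on cell number change: cells counted by Cell Tracker Red CMTPX staining in the red channel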
Details: BODIPY lipid droplet fluorescence, 18-24 h; for cell number change: measured here: cell count max response, cells fed with added oleic acid
Method in brief: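 Laser-scanning cytometry quantifies lipid droplet accumulation (500–530 nm total intensity; droplet/cell object ratio) in oleic acid-fed (400 uM added) Drosophila S3 cells treated with a concentration series. 20 uM Triacsin C defined 100% inhibition.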

[1] = measured here: cell number channel AC50, cells fed with added oleic acid
[2] = measured here: lipid fluorescence (Fed channel) AC50, cells fed with added oleic acid

SMILES	cell number change	AC50 [1]	AC50 [2]
COc1ccc(CCn2c(=O)[nH]c3cc(C(=O)N4CCN(c5ccccc5)CC4)ccc3c2=O)cc1OC	-33.2%	0.103 µM [falling, full curve, poor fit]	0.116 µM [falling, full curve, poor fit]
COc1ccccc1NS(=O)(=O)c1cn(C)cn1	-12.7%	–	0.231 µM [falling, full curve, poor fit]
O=C(Nc1cccc(C(=O)O)c1)/C(=C\c1ccco1)NC(=O)c1ccccc1Cl	-8.97%	–	–
Cc1sc(-c2ccncc2)nc1OC(=O)c1ccc(Cl)cc1	–	–	0.0013 µM [falling, full curve, poor fit]
C/C(=N\NC(=O)c1ccc(C)cc1C)c1ccc2c(c1)OCO2	-44.2%	7.31 µM [falling, full curve, poor fit]	–
COc1cccc(C(=O)NCC2CCCN2S(=O)(=O)c2ccccc2)c1 (stereo not given)	–	–	6.51 µM [rising, single point]
CCn1nc(C)c(CNC(=O)c2ccc(OC3CCN(Cc4ccccn4)CC3)cc2)c1C	-36.5%	0.58 µM [falling, full curve, poor fit]	–
C[n+]1c2n(c3ccccc31)N=C(c1ccc(-c3ccccc3)cc1)CS2	-61.6%	29.1 µM [falling, single point]	29.1 µM [falling, single point]
CCOc1ccccc1NS(=O)(=O)c1ccc2[nH]c(=O)ccc2c1	20.7%	–	29.1 µM [falling, single point]
COc1ccc(CCNS(=O)(=O)c2cccc([N+](=O)[O-])c2)cc1OC	21.6%	–	6.51 µM [rising, single point]
Cc1ccc(C(C)C)c(OCC(=O)NNC(=O)C2CSC3(C)CCC(=O)N23)c1 (stereo not given)	-25%	6.51 µM [falling, single point]	–
c1ccc2c(c1)oc1c(NCCCN3CCOCC3)ncnc12	-20.9%	–	29.1 µM [rising, single point]
Cc1cc(NC(=O)c2ccc3c(c2)C(=O)N(CCC(C)C)C3=O)no1	13.8%	0.731 µM [falling, single point]	–
Cc1nc2ccccc2cc1OCc1ccc(F)cc1	-78.2%	–	–
Cc1ccc(C(=O)OCC(=O)N2C(C)CCCC2C)cc1S(=O)(=O)N1CCOCC1 (stereo not given)	-31%	29.1 µM [falling, single point]	–
Cc1ccc2c(c1)N(C(=O)CCC(=O)NCc1cccnc1)CCO2	11%	–	–
O=C(CN1CCN(S(=O)(=O)/C=C/c2ccccc2)CC1)Nc1ccc(N2CCOCC2)cc1	37.3%	20.6 µM [rising, single point]	–
Cn1ncc2c(N3CCOCC3)ncnc21	-39.2%	0.58 µM [falling, full curve]	7.31 µM [falling, partial curve, poor fit]
COc1ccc(-c2csc(N3CCC(C(N)=O)(N4CCCCC4)CC3)n2)cc1	-18.6%	–	–
COc1ccc(-c2cccc(NC(=O)c3ccco3)c2)nn1	–	–	2.91 µM [rising, partial curve]

SMILES	cell number change	AC50 [1]	AC50 [2]
Cc1ccc(S(=O)(=O)N=Nc2c(O)[nH]c3ccccc23)cc1	-16.5%	–	20.6 µM [falling, single point]
COc1ccc(Cl)cc1-n1c(=S)sc2c(=O)[nH]c(SCC(=O)NCCC(C)C)nc21	8.33%	–	29.1 µM [rising, single point]
Cc1ccc(-c2csc3nc(SCC(=O)Nc4ccc(Cl)c(C(=O)O)c4)[nH]c(=O)c23)cc1	26.3%	–	32.6 µM [rising, single point]
Cc1ccc(S(=O)(=O)c2cc3ccccc3oc2=Nc2ccc3c(c2)OCCO3)cc1	-8.15%	–	0.92 µM [rising, full curve, poor fit]
Cc1ccc(NC(=S)N(CCCN2CCC(C)CC2)Cc2ccco2)cc1	-9.68%	5.8 µM [rising, single point]	6.51 µM [rising, single point]
COc1ccc2c(COC(=O)c3cccc(S(=O)(=O)NCC(C)C)c3)cc(=O)oc2c1	5.56%	–	–
Cc1noc(N)c1C(=O)Nc1ccccc1F	-13.8%	6.51 µM [falling, single point]	–
CCn1c(SCC(=O)N2CCCc3ccccc32)nc2cccnc21	164%	7.31 µM [rising, partial curve]	9.2 µM [rising, partial curve]
Cc1ccc(NC(=O)CNC(=O)N2CC(=O)Nc3ccccc32)cc1F	-27%	0.00461 µM [falling, full curve, poor fit]	–
COC(=O)c1ccccc1NC(=O)CCCN1C(=O)C(c2ccccc2)Oc2cccnc21 (stereo not given)	-16%	–	–
CCOC(=O)c1ccc(NC(=S)N2CCSC2c2ccc(Br)cc2)cc1 (stereo not given)	-83.3%	29.1 µM [falling, single point]	2.31 µM [falling, partial curve]
Cc1ccc(NC(=O)N/C=C/c2ccco2)cc1C	151%	–	20.6 µM [rising, partial curve]
OCCN(Cc1ccccc1)Cc1cccc(C(F)(F)F)c1	-44%	18.4 µM [falling, single point]	16.4 µM [falling, partial curve]
COc1cccc(CN(C)Cc2nc3cc(C(F)(F)F)ccc3c(=O)[nH]2)c1	-18.5%	–	–
CCN(CC(=O)Nc1cccc(F)c1)Cc1nc2ccccc2c(=O)[nH]1	32.2%	0.461 µM [rising, full curve, poor fit]	–
CSc1ncccc1C(=O)NCCc1ccc(S(N)(=O)=O)cc1	0.901%	–	29.1 µM [falling, single point]
O=C(NCc1ccccc1Br)C1CCCO1 (stereo not given)	23.8%	–	0.116 µM [falling, full curve, poor fit]
Cc1cc(C)cc(OCc2nnc(SCC(=O)N3CCN(c4ccccc4)CC3)o2)c1	–	–	0.58 µM [rising, single point]
CCOC(=O)C1=C(Cn2cnc3ccccc32)NC(=O)NC1c1cc(C)ccc1C (stereo not given)	-20.3%	–	8.2 µM [falling, partial curve, poor fit]
N#C/C(C(N)=O)=c1/ccc2c(c1)N1C3=C(CCCC3)CC3CCCCC31N=2 (stereo not given)	-3.62%	–	0.13 µM [rising, full curve, poor fit]

Part of the list above in order of molar mass, low to high:
SMILES	cell number change	AC50 [1]	AC50 [2]
Cc1noc(N)c1C(=O)Nc1ccccc1F	-13.8%	6.51 µM [falling, single point]	–
CSc1ncccc1C(=O)NCCc1ccc(S(N)(=O)=O)cc1	0.901%	–	29.1 µM [falling, single point]
COc1cccc(CN(C)Cc2nc3cc(C(F)(F)F)ccc3c(=O)[nH]2)c1	-18.5%	–	–
Cc1cc(C)cc(OCc2nnc(SCC(=O)N3CCN(c4ccccc4)CC3)o2)c1	–	–	0.58 µM [rising, single point]

More compounds

SMILES	cell number change	AC50 [1]	AC50 [2]
COc1ccc(C)cc1NC(=O)c1cccc(C(=O)Nc2cc(C)ccc2OC)c1	-31.4%	13 µM [falling, single point]	3.66 µM [falling, full curve]
N#CC(C#N)=C1C=CC=CN1/C(=C\c1ccccc1Cl)C(=O)c1ccccc1	-59.3%	13 µM [falling, partial curve]	8.2 µM [falling, partial curve]
Cc1n[nH]c(C)c1CCNCc1ccc(OCC(O)CN2CCCCC2)cc1 (stereo not given)	11.3%	–	4.11 µM [falling, single point]
Cc1ccc(S(=O)(=O)c2nc(NN(C)C)sc2Cl)cc1	-17.1%	–	–
COc1cccc(N2CCN(C3CCCC(C)C3)CC2)c1 (stereo not given)	-103%	32.6 µM [falling, single point]	29.1 µM [falling, single point]
CCN(CC)CCNC(=O)c1ccc2c(c1)NC(=O)c1ccccc1S2	31.5%	29.1 µM [rising, single point]	29.1 µM [rising, single point]
CCN(c1ccccc1)S(=O)(=O)c1ccc(OC)c(OC)c1	–	–	1.46 µM [rising, full curve]
Clc1ccc(-c2noc(CN3CCN(c4ccccc4)CC3)n2)cc1	-23.4%	1.16 µM [falling, full curve, poor fit]	–
O=C(COC(=O)c1cc[n+]([O-])cc1)Nc1cc([N+](=O)[O-])ccc1Cl	2%	–	–
CCOc1ccccc1N(C)C(=O)Cn1ncc2c([nH]c3ccccc32)c1=O	14.9%	–	29.1 µM [rising, single point]
CCOC(=O)C1CCCN(CC(=O)/C=C2/N(C)c3ccccc3C2(C)C)C1 (stereo not given)	-16.1%	–	–
c1ccc(-c2nc(NCC3CCCO3)c3oc4ccccc4c3n2)cc1 (stereo not given)	–	2.31 µM [rising, partial curve]	4.61 µM [rising, full curve]
Fc1ccc(NC(=S)NNc2ncc(C(F)(F)F)cc2Cl)c(F)c1	-65.1%	25.1 µM [falling, single point]	25.1 µM [falling, partial curve, poor fit]
COc1ccccc1NCC(O)COc1ccc(C(C)(C)C)cc1 (stereo not given)	-68%	16.4 µM [falling, partial curve, poor fit]	16.4 µM [falling, single point]
COc1cc(CN2CCN(c3cccc(C)c3C)CC2)cc([N+](=O)[O-])c1O	3.01%	–	6.51 µM [falling, single point]
CC(C)(C)NC(=S)N1CCC(C(=O)c2ccc(F)cc2)CC1	2.7%	–	–
CN1CCN(S(=O)(=O)c2cccc(C(=O)N(C)C(c3ccccc3)c3ccccc3)c2)CC1	33.2%	20.6 µM [rising, single point]	–
O=C(CCC(=O)Nc1ccccc1Cl)NN=C1CCCC1	-1.42%	–	6.51 µM [falling, single point]
CCOc1ccc(NC(=O)CN(C)C(=O)CCSc2ccc(F)cc2)cc1OCC	13.9%	–	0.0058 µM [falling, full curve, poor fit]
